Assay results published in US9512090B2, “Tetrazolinone compound and use thereof” (Sumitomo Chemical Company, Limited, priority 2013, dated 2016).
Some entries share one result that the patent states for a list of compounds. At least one structure is not confirmed: it was looked up by name or label, or the drawing left a doubt.

Legend:
Type in all cases: in vivo
[1] = tested on: cucumber powdery mildew fungus (Sphaerotheca fuliginea); assay: Test Example 6 and Comparative Test Example: cucumber powdery mildew control by foliar spray; conditions: 500 ppm spray on cucumber (SAGAMI HANJIRO); 8 days after inoculation
[2] = tested on: kidney bean stem rot fungus (Sclerotinia sclerotiorum); assay: Test Example 4: kidney bean stem rot control by foliar spray; conditions: 500 ppm spray on kidney bean (NAGAUZURA SAITOU); four days after inoculation
[3] = tested on: wheat leaf blotch fungus (Septoria tritici); assay: Test Example 5: wheat leaf blotch control by foliar spray; conditions: 500 ppm spray on wheat (APOGEE); inoculated after 4 days; assessed after 3 days + 14 to 18 days
[4] = tested on: barley scald fungus (Rhynchosporium secalis); assay: Test Example 8: barley scald control by foliar spray; conditions: 200 ppm spray on barley (NISHINOHOSHI); inoculated after 2 days; assessed after 3 + 7 days
[5] = tested on: cucumber anthracnose fungus (Colletotrichum lagenarium); assay: Test Example 10: cucumber anthracnose control by foliar spray; conditions: 200 ppm spray on cucumber (SAGAMI HANJIRO); inoculated after one day; assessed after 1 + 6 days
[6] = tested on: soybean rust fungus (Phakopsora pachyrhizi); assay: Test Example 7: soybean rust control by foliar spray; conditions: 200 ppm spray on soybean (KUROSENGOKU); inoculated after 2 days; assessed after 3 + 14 days

Measured: area of lesion spots on the treated plant relative to that on an untreated plant

COc1cccc(-n2nnn(C)c2=O)c1COc1ccc(-c2cccc(C(C)(C)C)c2)cc1C [compound 14]
≤ 30%: [1] | [2] | [3] | [4] | [5]

COc1ccccc1-c1cc(C)c(OCc2c(C)cccc2-n2nnn(C)c2=O)cc1C [compound 123]
≤ 30%: [1] | [2] | [3] | [4] | [5]

CCOCc1ccc(OCc2c(C)cccc2-n2nnn(C)c2=O)c(C)c1 [compound 84]
≤ 30%: [4] | [5] | [6]

Cc1cc(Oc2ncccn2)ccc1OCc1c(C)cccc1-n1nnn(C)c1=O [compound 76]
≤ 30%: [1] | [2] | [3] | [4]

COc1ccccc1-c1ccc(OCc2c(C)cccc2-n2nnn(C)c2=O)c(C(F)(F)F)c1 [compound 133]
≤ 30%: [1] | [4] | [5]

COc1cccc(-n2nnn(C)c2=O)c1COc1ccc(-c2ccc(C)cc2C)cc1C [compound 36]
≤ 30%: [1] | [3] | [4] | [5]

COc1cc(OCc2c(C)cccc2-n2nnn(C)c2=O)ccc1-c1ccccc1 [compound 51]
≤ 30%: [1] | [4] | [5]

COc1cccc(-n2nnn(C)c2=O)c1COc1ccc(-c2c(C)cccc2C)cc1C [compound 15]
≤ 30%: [1] | [2] | [3] | [4]

Cc1cccc(-n2nnn(C)c2=O)c1COc1ccc(-c2ccccc2)cc1 [compound 1]
≤ 30%: [1] | [2] | [3] | [4]

CCc1cc(OCc2c(C)cccc2-n2nnn(C)c2=O)ccc1-c1ccc(OC)cc1 [compound 127]
≤ 30%: [1] | [6]

COc1cccc(-n2nnn(C)c2=O)c1COc1ccc(-c2cccc(C#N)c2)cc1C [compound 11]
≤ 30%: [1] | [2] | [3] | [4]

Cc1ccc(OCc2c(C)cccc2-n2nnn(C)c2=O)c(Cl)c1 [compound 92]
≤ 30%: [1] | [2] | [4]

COc1ccc(Oc2ccc(OCc3c(C)cccc3-n3nnn(C)c3=O)c(C)c2)cc1 [compound 70]
≤ 30%: [1] | [3] | [4] | [5]

Cc1cc(-c2ccc(Cl)cc2Cl)ccc1OCc1c(C)cccc1-n1nnn(C)c1=O [compound 6]
≤ 30%: [1] | [2] | [3] | [4] | [5]

Cc1cc(Oc2cccc(C#N)c2)ccc1OCc1c(C)cccc1-n1nnn(C)c1=O [compound 73]
≤ 30%: [1] | [3] | [4] | [5]

CCc1cccc(-n2nnn(C)c2=O)c1COc1cc(C)c(-c2ccccc2)cc1C [compound 137]
≤ 30%: [1] | [3] | [4] | [6]

COc1ccc(-c2ccc(OCc3c(C)cccc3-n3nnn(C)c3=O)cc2OC)cc1 [compound 53]
≤ 30%: [3] | [4] | [5] | [6]

Cc1cc(-c2cccc(C#N)c2)ccc1OCc1c(C2CC2)cccc1-n1nnn(C)c1=O [compound 28]
≤ 30%: [1] | [3] | [4] | [5]

CCc1cc(OCc2c(C)cccc2-n2nnn(C)c2=O)ccc1-c1ccccc1OC [compound 129]
≤ 30%: [4] | [6]

Cc1cc(Oc2ccccc2C#N)ccc1OCc1c(C)cccc1-n1nnn(C)c1=O [compound 74]
≤ 30%: [1] | [3] | [5]

CCN(C)/C=N/c1ccc(OCc2c(C)cccc2-n2nnn(C)c2=O)c(C)c1 [compound 87]
≤ 30%: [1] | [2] | [3]

CCCN(C)/C=N/c1ccc(OCc2c(C)cccc2-n2nnn(C)c2=O)c(C)c1 [compound 88]
≤ 30%: [1] | [2] | [3]

CCc1cc(-c2ccccc2)ccc1OCc1c(C)cccc1-n1nnn(C)c1=O [compound 113]
≤ 30%: [1] | [4] | [6]

COc1cccc(-n2nnn(C)c2=O)c1COc1ccc(-c2ccc(C#N)cc2)cc1C [compound 37]
≤ 30%: [1] | [4] | [5]

COc1cccc(-c2cc(C)c(OCc3c(C)cccc3-n3nnn(C)c3=O)cc2C)c1 [compound 120]
≤ 30%: [1] | [4] | [5]

Cc1cccc(-n2nnn(C)c2=O)c1COc1ccc(-c2ccccc2)c(C#N)c1 [compound 56]
≤ 30%: [1] | [4] | [5]

Cc1cc(CCc2ccccc2)ccc1OCc1c(C)cccc1-n1nnn(C)c1=O [compound 91]
≤ 30%: [1] | [2] | [3] | [4] | [5]

Cc1cccc(-n2nnn(C)c2=O)c1COc1ccc(-c2ccccc2)c(C(F)(F)F)c1 [compound 117]
≤ 30%: [1] | [4] | [5]

Cc1cccc(-n2nnn(C)c2=O)c1COc1ccc(-c2ccccc2)c(C)c1C [compound 135]
≤ 30%: [4] | [6]

COc1cccc(-n2nnn(C)c2=O)c1COc1ccc(-c2ccc3ccccc3c2)cc1C [compound 40]
≤ 30%: [1] | [2] | [4]

CCCCN(C)C(=O)c1ccc(OCc2c(OC)cccc2-n2nnn(C)c2=O)c(C)c1 [compound 102]
≤ 30%: [2] | [3] | [4]
